PubChem BioAssay AID720505 – Drosophila RNAi Screening Center – 2013
In all, the deposit lists about 20,000 reagents; below is an unselected part of those that have a named target and a result. Over the whole deposit, about 2,100 (10%) are marked active. 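Raw plate signals without normalisation; calls rest on control-based scores that were not deposited; replicate 2 separates called from uncalled poorly.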 A number with no mark means an inactive call. The numbers tell different reagents against one gene apart. Not given: the amount of reagent, the time to read-out.

Purpose: 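Knock-downs that reduce calcium influx once internal stores are emptied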 (primary screen)
Cells: Drosophila S2R+ cells
Reagents: long dsRNA against Drosophila genes
Conditions: thapsigargin (2 µM) in calcium-free buffer to empty internal stores, then 2 mM calcium added back
Measured: 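Stores emptied by 2 µM thapsigargin without calcium, then 2 mM calcium re-added; fluo-4 fluorescence followed by FLIPR in 384-well plates, per-well averaged endpoint, raw; two screen passes, some wells retested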
Scale: calcium signal: higher = more calcium entry after store depletion
Call rule: 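About 1500 genes called as lowering calcium entry, by varying amounts, judged against per-plate control wells with STIM1 as positive and Rho1 as negative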
Meaning of the calls: active = called as lowering calcium entry; inactive = not called

With knock-down of Rai1 the results were calcium signal, replicate 1 = 76; calcium signal, replicate 2 = 142. CG5011 gave calcium signal, replicate 1 = 116; calcium signal, replicate 2 = 211. CG15642 gave calcium signal, replicate 1 = 74.7; calcium signal, replicate 2 = 125. Depletion of lncRNA:iab8 #1 came out at: calcium signal, replicate 1 = 72.5; calcium signal, replicate 2 = 88.7. For lncRNA:iab8 #2, the values are calcium signal, replicate 1 = 100; calcium signal, replicate 2 = 144. After knock-down of CG10681 #1 the results were calcium signal, replicate 1 = 123; calcium signal, replicate 2 = 79.

After knock-down of CG10681 #2, the screen gave calcium signal, replicate 1 = 153; calcium signal, replicate 2 = 106. CG42671 #1 showed calcium signal, replicate 1 = 87.7; calcium signal, replicate 2 = 123. Against CG42671 #2, the values are calcium signal, replicate 1 = 91.8; calcium signal, replicate 2 = 117. osk scored calcium signal, replicate 1 = 66.2 (active); calcium signal, replicate 2 = 108. Cpr60D showed calcium signal, replicate 1 = 136; calcium signal, replicate 2 = 169. After knock-down of CG34355 #1, the record shows calcium signal, replicate 1 = 7015; calcium signal, replicate 2 = 126.

For CG34355 #2 the deposit lists calcium signal, replicate 1 = 152; calcium signal, replicate 2 = 92.6. CG34355 #3 showed calcium signal, replicate 1 = 135; calcium signal, replicate 2 = 117. CG34355 #4 scored calcium signal, replicate 1 = 226; calcium signal, replicate 2 = 114.

4 entries from above, reformatted.
{"predicted target":"Cpr60D","reagent":1,"calcium signal, replicate 1":136,"calcium signal, replicate 2":169}
{"predicted target":"CG34355","reagent":1,"calcium signal, replicate 1":7015,"calcium signal, replicate 2":126}
{"predicted target":"CG34355","reagent":2,"calcium signal, replicate 1":152,"calcium signal, replicate 2":92.6}
{"predicted target":"CG34355","reagent":3,"calcium signal, replicate 1":135,"calcium signal, replicate 2":117}

The list goes on.
Knock-down of CG43902 #1 came out at: calcium signal, replicate 1 = 95.2; calcium signal, replicate 2 = 84.7. CG43902 #2 showed calcium signal, replicate 1 = 92.2; calcium signal, replicate 2 = 87.7. Mccc2 gave calcium signal, replicate 1 = 114; calcium signal, replicate 2 = 213. LKRSDH showed calcium signal, replicate 1 = 115; calcium signal, replicate 2 = 181. Against sqd #1, the entry reads calcium signal, replicate 1 = 89.9; calcium signal, replicate 2 = 188. Depletion of sqd #2 gave: calcium signal, replicate 1 = 183; calcium signal, replicate 2 = 166.

Against sqd #3, the entry reads calcium signal, replicate 1 = 97.5; calcium signal, replicate 2 = 172. For Larp4B #1, the entry reads calcium signal, replicate 1 = 69.4; calcium signal, replicate 2 = 128. Larp4B #2 showed calcium signal, replicate 1 = 97.8; calcium signal, replicate 2 = 157. With knock-down of CG16710, the record shows calcium signal, replicate 1 = 74.4; calcium signal, replicate 2 = 88.2. Depletion of Vps13 resulted in: calcium signal, replicate 1 = 149; calcium signal, replicate 2 = 131. Depletion of Lrpprc2 came out at: calcium signal, replicate 1 = 51.2 (active); calcium signal, replicate 2 = 77.2.

For CG30391, the entry reads calcium signal, replicate 1 = 156; calcium signal, replicate 2 = 96.
